# Results from PubChem BioAssay AID2685 (National Center for Advancing Translational Sciences (NCATS), 2010).
# The list shows a part of the results. Further columns of the screen follow, without active or inactive calls. Most of these compounds were active or inconclusive in the main read-out, so they are no random draw. Potencies come from curve fits of mixed quality, noted in brackets.
# Test: qHTS Assay for Lipid Storage Modulators in Drosophila S3 Cells;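 on cell number change: cells counted by Cell Tracker Red CMTPX staining in the red channel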
# Conditions: BODIPY lipid droplet fluorescence, 18-24 h; for cell number change: measured here: cell count max response, cells fed with added oleic acid
# Summary of the method: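 Laser-scanning cytometry quantifies lipid droplet accumulation (500–530 nm total intensity; droplet/cell object ratio) in oleic acid-fed (400 uM added) Drosophila S3 cells treated with a concentration series. 20 uM Triacsin C defined 100% inhibition.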
# [1] = measured here: lipid fluorescence (Fed channel) AC50, cells fed with added oleic acid
# [2] = measured here: cell number channel AC50, cells fed with added oleic acid
Compound,cell number change [%],AC50 [1],AC50 [2]
O=S(=O)(Nc1cccc(-c2cn3c(n2)SCC3)c1)c1ccccc1,-15.7,"29.1 µM [falling, single point]",
COc1ccc(NC(=O)c2sc3nc(N4CCOCC4)c4c(c3c2N)CC(C)(C)OC4)c(OC)c1,-8.25,"6.51 µM [falling, single point]",
COc1ccc(N2CC(O)=C(c3nc4ccccc4s3)C2=N)cc1,-2.59,"0.411 µM [rising, partial curve, poor fit]","0.103 µM [rising, full curve, poor fit]"
O=C(CSc1nc2ccccc2c(=O)[nH]1)Nc1ccccc1O,11.5,"0.116 µM [falling, single point]",
CCc1nc(CN2CCCC(C(=O)c3ccc4c5c(cccc35)CC4)C2)c(C)[nH]1 (configuration not stated),10.1,,
Cc1ccccc1C(=O)NCC(=O)NCC1(N2CCOCC2)CCCCC1,6.83,,
COc1cccc(-c2nc(-c3ccc(NC(=O)c4cccnc4)cc3)no2)c1,1.12,"16.4 µM [rising, single point]",
CC1(C)C2CCC1(C)C(OC(=O)c1ccc(O)cc1)C2 (configuration not stated),-54.7,"20.6 µM [falling, partial curve]","29.1 µM [falling, single point]"
Cc1c(-c2n[nH]c(=S)n2-c2ccc(C(F)(F)F)cc2)nnn1-c1ccccc1,26.6,"3.66 µM [rising, full curve]",
COc1ccc(NC(=O)/C(=C\c2ccco2)NC(=O)c2ccco2)cc1,-2.94,"0.00461 µM [rising, full curve, poor fit]",
O=C(Nc1nnc(-c2ccccc2Cl)o1)c1cc2cc([N+](=O)[O-])ccc2s1,-38.1,,"2.06 µM [rising, partial curve, poor fit]"
CC(C)OC(=O)CC12CN3CC(CC(=O)OC(C)C)(CN(C1)C(=O)c1ccccc1C3=O)C2=O,1.42,"6.51 µM [rising, single point]",
COc1cc(C(=O)NC(=S)Nc2ccc([N+](=O)[O-])cc2C)cc(OC)c1OC,-0.683,"0.366 µM [rising, partial curve]",
O=[N+]([O-])c1ccc2c(c1)Nc1nc3ccccc3nc1N2,15.9,"29.1 µM [falling, single point]",
CCN1C(=O)c2cccc3c(S(=O)(=O)N(C(=O)c4ccncc4)c4ccc(OC)cc4)ccc1c23,8.39,"1.84 µM [rising, full curve, poor fit]",
O=C(NC(=C(Cl)Cl)S(=O)(=O)c1ccc(Cl)cc1)c1ccccc1,-13,"0.461 µM [rising, partial curve, poor fit]","0.82 µM [rising, single point]"
CCOC(=O)c1ccccc1NC(=O)Cn1c(-c2nonc2N)nc2ccccc21,31.8,"23.1 µM [rising, single point]","2.59 µM [rising, full curve, poor fit]"
O=C(c1cc(Cl)nc2ccccc12)N1CCN(S(=O)(=O)c2cccc(C(F)(F)F)c2)CC1,,"0.517 µM [rising, full curve, poor fit]",

# Quoted at random: two entries already listed, in no set order.
Compound,cell number change [%],AC50 [1],AC50 [2]
CCN1C(=O)c2cccc3c(S(=O)(=O)N(C(=O)c4ccncc4)c4ccc(OC)cc4)ccc1c23,8.39,"1.84 µM [rising, full curve, poor fit]",
COc1ccc(NC(=O)c2sc3nc(N4CCOCC4)c4c(c3c2N)CC(C)(C)OC4)c(OC)c1,-8.25,"6.51 µM [falling, single point]",

# Additional records:

Compound,cell number change [%],AC50 [1],AC50 [2]
COc1ccc(CCNC(=O)c2cc(CC(C)C)on2)cc1OC,,"1.16 µM [rising, single point]","1.16 µM [rising, single point]"
CCCc1ccc(-c2c(C)sc(NC(=O)c3ccnn3C)c2C#N)cc1,,"0.13 µM [rising, full curve, poor fit]","0.184 µM [rising, full curve]"
CCOc1ccc(C(=O)CC(C(=O)O)N2CCN(Cc3ccccc3)CC2)cc1 (configuration not stated),-74.5,"5.17 µM [falling, partial curve, poor fit]","14.6 µM [falling, partial curve]"
Cc1ccc(C(=O)NCCc2nnc3ccc(SCC(=O)N4CCCCC4)nn23)cc1,-30.3,"29.1 µM [falling, single point]","29.1 µM [falling, partial curve]"
CC1(C)Cc2c(sc3ncn4nc(CCC(=O)O)c(=O)nc4c23)CO1,-0.191,,
CCN(CC)CCOC(=O)c1cccc(OC)c1,-24.1,"6.51 µM [falling, single point]","6.51 µM [falling, single point]"
CCOC(=O)C1CCCN(S(=O)(=O)c2ccc(S(=O)(=O)N3CCCC3)cc2)C1 (configuration not stated),72.3,,"20.6 µM [rising, single point]"
Cn1c(CO)cnc1SCc1ccc(F)cc1,-11,,
O=C(NCCN1CCc2ccccc2C1)Nc1ccc([N+](=O)[O-])cc1,22.2,"29.1 µM [rising, single point]",
COc1ccc(-c2nc(Cn3c(SCc4ccc(F)cc4)nc4ccncc43)c(C)o2)cc1OC,1.84,"0.366 µM [rising, full curve, poor fit]",
COC(=O)CCC(=O)NNC(=O)CCCOc1ccc(Cl)cc1Cl,1.15,,
Cc1ccc(/C=N/NC(=O)CCCOc2ccc(Cl)cc2Cl)cc1[N+](=O)[O-],-0.934,"1.84 µM [rising, partial curve]","1.46 µM [rising, partial curve, poor fit]"
Cc1cc(C(=O)COC(=O)CN=C2NS(=O)(=O)c3ccccc32)c(C)n1CCc1ccc(Cl)cc1,-13.2,,"6.51 µM [falling, single point]"
S=c1[nH]nc(-c2cccc3ccccc23)n1-c1cccnc1,21.3,"6.51 µM [rising, full curve]",
Cc1ccc(-c2nn(-c3ccccc3)cc2/C=N/NC(=O)c2ccc(Br)o2)cc1,-30.8,"4.61 µM [falling, single point]","29.1 µM [falling, single point]"
O=C(Oc1cccc2cccnc12)c1cccc(N2C(=O)C3C4CCC(C4)C3C2=O)c1 (configuration not stated),69.8,,"29.1 µM [rising, single point]"
CCOC(=O)C1=C(COC(=O)C2CC(=O)N(c3ccc(C)cc3)C2)NC(=O)NC1C (configuration not stated),-10,,
